# This is one part of the list. Most entries show no effect beyond the scatter of the controls.
# Protein sequences, listed by entry. Tags and fused reporters are not part of them. Lines headed by an entry give the natural chain unless they say otherwise; changes in a name come on top.
# UniProt Q5HYC2: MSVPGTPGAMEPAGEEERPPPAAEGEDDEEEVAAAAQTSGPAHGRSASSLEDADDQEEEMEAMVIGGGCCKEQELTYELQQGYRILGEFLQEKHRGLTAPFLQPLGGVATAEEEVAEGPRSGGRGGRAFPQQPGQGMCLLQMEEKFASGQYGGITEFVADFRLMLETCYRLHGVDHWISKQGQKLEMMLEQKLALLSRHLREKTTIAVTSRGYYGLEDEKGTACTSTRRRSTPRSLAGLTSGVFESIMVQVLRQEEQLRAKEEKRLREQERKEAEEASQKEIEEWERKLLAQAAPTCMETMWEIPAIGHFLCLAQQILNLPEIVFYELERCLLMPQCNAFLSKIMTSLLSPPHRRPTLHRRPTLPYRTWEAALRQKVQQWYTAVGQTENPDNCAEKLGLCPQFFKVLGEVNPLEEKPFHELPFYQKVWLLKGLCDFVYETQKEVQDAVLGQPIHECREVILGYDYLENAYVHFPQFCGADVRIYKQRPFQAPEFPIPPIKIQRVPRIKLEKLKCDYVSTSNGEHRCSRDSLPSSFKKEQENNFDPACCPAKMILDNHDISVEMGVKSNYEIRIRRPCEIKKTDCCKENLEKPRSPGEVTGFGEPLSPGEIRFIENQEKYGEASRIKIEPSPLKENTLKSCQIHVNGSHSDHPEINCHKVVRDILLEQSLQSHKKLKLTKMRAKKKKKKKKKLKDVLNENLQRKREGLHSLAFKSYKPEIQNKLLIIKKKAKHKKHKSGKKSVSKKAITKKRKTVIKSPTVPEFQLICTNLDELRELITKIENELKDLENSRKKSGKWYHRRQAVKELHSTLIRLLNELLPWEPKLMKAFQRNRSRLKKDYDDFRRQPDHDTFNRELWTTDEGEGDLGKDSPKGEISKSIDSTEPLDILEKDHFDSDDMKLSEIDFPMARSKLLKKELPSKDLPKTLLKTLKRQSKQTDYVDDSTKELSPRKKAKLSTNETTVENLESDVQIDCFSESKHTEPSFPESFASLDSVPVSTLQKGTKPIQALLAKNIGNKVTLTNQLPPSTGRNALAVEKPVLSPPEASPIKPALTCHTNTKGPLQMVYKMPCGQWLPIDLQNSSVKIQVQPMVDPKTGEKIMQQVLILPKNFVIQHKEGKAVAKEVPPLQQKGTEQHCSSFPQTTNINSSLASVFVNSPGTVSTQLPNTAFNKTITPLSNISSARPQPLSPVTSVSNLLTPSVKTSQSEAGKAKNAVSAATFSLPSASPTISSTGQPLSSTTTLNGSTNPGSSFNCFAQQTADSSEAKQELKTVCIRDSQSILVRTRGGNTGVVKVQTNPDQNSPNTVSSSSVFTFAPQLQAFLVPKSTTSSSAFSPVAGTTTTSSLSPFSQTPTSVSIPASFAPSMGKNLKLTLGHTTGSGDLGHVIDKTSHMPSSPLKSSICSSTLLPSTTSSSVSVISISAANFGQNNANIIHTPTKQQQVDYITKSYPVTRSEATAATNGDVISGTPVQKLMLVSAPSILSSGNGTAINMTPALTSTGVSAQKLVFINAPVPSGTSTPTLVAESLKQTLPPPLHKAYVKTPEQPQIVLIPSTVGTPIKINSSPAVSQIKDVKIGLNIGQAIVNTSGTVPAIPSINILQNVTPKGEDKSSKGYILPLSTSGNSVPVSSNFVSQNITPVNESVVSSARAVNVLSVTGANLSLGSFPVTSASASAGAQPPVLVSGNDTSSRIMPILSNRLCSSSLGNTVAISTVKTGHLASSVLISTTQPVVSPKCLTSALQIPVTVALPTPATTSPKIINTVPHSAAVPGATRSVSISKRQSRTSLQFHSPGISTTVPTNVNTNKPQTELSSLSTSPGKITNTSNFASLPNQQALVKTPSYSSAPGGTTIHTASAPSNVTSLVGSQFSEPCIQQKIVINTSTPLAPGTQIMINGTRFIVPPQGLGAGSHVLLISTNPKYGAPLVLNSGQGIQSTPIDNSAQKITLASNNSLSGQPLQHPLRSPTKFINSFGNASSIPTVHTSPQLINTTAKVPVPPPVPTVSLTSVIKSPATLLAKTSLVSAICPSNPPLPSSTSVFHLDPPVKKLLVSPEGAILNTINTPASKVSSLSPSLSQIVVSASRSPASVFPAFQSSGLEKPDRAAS
# UniProt Q5SW96: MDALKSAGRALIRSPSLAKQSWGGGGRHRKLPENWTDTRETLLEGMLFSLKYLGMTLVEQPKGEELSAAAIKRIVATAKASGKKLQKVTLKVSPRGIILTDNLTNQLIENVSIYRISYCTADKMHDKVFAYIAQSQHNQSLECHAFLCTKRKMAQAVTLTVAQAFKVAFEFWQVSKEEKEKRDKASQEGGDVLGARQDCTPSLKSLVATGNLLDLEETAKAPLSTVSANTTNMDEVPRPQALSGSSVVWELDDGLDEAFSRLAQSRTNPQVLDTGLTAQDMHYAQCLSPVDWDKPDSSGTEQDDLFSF
# UniProt Q5FWF4: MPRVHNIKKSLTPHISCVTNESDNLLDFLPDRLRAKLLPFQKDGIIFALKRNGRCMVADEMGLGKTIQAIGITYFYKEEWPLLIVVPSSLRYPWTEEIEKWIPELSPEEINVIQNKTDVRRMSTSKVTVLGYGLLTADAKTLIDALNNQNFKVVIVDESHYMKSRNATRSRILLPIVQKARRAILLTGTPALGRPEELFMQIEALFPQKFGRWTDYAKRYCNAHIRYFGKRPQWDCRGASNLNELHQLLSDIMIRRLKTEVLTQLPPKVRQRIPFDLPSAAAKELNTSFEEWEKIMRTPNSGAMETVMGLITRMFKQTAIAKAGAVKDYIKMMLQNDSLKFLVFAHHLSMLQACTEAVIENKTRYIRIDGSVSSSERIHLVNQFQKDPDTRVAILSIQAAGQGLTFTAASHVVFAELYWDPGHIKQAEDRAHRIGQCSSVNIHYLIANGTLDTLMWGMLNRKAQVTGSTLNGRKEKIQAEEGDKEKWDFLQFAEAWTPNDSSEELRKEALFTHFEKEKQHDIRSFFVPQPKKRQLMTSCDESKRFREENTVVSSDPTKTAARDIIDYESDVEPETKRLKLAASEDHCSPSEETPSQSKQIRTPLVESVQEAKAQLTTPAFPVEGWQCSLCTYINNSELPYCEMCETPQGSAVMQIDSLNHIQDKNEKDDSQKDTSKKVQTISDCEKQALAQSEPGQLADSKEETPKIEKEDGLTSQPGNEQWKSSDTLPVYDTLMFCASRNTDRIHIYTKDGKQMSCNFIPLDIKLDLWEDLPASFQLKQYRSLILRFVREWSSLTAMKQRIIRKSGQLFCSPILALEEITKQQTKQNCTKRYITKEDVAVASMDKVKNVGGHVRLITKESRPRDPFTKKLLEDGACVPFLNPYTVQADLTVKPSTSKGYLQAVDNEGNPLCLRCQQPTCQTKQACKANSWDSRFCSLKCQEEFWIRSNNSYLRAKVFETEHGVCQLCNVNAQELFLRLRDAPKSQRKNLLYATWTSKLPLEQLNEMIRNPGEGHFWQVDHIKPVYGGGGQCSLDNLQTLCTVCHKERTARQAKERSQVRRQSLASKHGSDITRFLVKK
# UniProt Q5BJE1: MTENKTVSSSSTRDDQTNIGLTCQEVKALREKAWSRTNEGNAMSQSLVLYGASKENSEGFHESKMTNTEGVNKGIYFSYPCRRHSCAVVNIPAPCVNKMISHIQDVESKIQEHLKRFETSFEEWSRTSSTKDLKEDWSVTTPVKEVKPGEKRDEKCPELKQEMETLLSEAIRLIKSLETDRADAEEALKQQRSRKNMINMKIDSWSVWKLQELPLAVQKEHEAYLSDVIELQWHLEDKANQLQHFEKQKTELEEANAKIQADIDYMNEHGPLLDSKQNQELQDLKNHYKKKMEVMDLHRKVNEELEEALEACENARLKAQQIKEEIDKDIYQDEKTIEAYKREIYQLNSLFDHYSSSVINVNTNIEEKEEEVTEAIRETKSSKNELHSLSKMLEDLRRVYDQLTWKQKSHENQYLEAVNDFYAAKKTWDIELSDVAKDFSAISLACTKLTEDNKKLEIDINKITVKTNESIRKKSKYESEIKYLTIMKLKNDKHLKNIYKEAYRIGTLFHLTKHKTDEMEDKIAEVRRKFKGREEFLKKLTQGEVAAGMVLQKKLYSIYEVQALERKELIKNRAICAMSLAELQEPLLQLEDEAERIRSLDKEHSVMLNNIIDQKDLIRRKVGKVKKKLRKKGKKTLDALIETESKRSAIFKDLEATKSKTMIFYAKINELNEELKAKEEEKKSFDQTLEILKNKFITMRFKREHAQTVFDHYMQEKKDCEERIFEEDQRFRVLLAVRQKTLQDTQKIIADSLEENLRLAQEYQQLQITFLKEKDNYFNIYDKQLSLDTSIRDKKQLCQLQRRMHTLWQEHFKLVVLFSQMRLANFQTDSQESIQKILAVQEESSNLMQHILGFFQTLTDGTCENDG
# UniProt Q5T4F4: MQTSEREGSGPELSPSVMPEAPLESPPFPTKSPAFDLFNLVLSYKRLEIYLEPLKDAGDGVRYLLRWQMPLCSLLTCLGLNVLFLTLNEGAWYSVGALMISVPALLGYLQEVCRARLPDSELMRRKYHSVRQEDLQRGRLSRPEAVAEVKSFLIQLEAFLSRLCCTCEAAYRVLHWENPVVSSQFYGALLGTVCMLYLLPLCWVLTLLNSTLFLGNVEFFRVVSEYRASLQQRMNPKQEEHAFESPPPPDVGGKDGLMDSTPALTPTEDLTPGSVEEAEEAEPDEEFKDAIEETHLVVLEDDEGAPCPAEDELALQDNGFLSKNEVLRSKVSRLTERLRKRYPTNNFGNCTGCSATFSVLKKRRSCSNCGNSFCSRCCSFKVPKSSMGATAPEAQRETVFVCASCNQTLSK
# UniProt Q53EV4: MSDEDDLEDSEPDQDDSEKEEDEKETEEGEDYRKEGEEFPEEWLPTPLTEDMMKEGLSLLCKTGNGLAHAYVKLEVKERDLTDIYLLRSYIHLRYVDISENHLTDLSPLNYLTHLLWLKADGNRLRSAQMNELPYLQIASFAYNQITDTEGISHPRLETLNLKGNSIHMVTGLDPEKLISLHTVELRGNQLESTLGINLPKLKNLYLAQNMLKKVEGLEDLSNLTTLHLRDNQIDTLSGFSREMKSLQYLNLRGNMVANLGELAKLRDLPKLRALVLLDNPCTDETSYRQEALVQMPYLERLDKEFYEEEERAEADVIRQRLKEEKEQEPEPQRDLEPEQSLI
# UniProt Q4G148: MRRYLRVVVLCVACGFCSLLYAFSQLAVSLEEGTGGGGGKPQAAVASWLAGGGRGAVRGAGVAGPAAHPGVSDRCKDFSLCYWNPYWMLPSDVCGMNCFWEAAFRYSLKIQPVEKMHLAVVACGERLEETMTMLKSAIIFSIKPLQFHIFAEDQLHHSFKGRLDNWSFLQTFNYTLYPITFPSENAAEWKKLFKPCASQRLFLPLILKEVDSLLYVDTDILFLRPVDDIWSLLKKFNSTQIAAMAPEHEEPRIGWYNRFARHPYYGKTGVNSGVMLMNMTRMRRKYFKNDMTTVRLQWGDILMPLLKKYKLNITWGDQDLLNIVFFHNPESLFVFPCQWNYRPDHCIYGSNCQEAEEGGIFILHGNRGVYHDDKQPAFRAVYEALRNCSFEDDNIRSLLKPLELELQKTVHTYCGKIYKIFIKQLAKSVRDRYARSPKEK
# UniProt Q5VIY5: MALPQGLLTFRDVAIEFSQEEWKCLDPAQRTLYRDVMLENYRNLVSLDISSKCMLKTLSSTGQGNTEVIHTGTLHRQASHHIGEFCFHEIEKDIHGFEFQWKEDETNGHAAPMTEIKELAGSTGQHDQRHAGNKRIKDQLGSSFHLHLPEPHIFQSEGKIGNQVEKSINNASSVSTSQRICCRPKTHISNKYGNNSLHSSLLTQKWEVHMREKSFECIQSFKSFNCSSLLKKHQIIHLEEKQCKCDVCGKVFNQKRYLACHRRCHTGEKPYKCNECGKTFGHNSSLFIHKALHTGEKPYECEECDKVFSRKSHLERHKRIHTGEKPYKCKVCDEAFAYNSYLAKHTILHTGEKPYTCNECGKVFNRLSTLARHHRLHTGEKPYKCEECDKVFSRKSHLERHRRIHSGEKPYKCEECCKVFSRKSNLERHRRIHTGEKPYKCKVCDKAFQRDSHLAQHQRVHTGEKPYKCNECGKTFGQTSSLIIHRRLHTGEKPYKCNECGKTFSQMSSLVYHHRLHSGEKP
# UniProt Q5TA50: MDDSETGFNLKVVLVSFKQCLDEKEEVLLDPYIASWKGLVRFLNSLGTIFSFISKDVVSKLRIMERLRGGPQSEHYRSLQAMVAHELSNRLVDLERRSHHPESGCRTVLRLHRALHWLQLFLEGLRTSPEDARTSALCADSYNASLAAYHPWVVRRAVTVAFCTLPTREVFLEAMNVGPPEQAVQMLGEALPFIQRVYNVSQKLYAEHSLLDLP
# UniProt Q53HV7: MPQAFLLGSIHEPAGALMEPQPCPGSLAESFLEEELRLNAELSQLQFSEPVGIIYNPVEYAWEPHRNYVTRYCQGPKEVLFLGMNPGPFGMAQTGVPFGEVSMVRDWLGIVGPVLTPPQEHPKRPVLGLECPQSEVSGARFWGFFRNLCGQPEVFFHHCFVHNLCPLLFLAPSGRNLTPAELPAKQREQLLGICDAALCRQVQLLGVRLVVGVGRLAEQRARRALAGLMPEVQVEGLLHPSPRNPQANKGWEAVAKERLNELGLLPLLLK
# Compound: CN[C@@H]1C[C@H]2O[C@@](C)([C@@H]1OC)n1c3ccccc3c3c4c(c5c6ccccc6n2c5c31)C(=O)NC4 [staurosporine]
# Experiment: log2 fold change of tryptic peptide abundance, ligand vs vehicle (limited proteolysis) (log2 ratio); higher = more trypsin-susceptible (destabilized)
# Conditions: ligand concentration: 20 uM; sample: K562 cleared lysate; digestion: 4 min, 22 C (HT-PELSA RT4min, Orbitrap Astral)
row,Target,log2 fold change
1,"C3orf38 (peptide sequence: LKETPEPVTK, peptide start residue: 107) (UniProt Q5JPI3)",0.262
2,"UniProt Q5HYC2 (peptide sequence: FIENQEK, peptide start residue: 612)",0.0273
3,"STXBP5 (peptide sequence: KLSLPTDLKPDLDVK, peptide start residue: 757) (UniProt Q5T5C0)",0.107
4,"ZNF318 (peptide sequence: IYELAVWDENKK, peptide start residue: 1953) (UniProt Q5VUA4)",-0.437
5,"MAGI3 (peptide sequence: STLNENQPEIK, peptide start residue: 1172) (UniProt Q5TCQ9)",-0.458
6,"UniProt Q5TAQ9 (peptide sequence: GTWLASGSDDLK, peptide start residue: 205)",-0.368
7,"CCDC92 (peptide sequence: ERPLVIPPIASDR, peptide start residue: 260) (UniProt Q53HC0)",-0.303
8,"LDLRAP1 (peptide sequence: KMAQAVTLTVAQAFK, peptide start residue: 152) (UniProt Q5SW96)",0.482
9,"CYBRD1 (peptide sequence: NLALDEAGQR, peptide start residue: 274) (UniProt Q53TN4)",0.301
10,"UniProt Q5FWF4 (peptide sequence: QRIPFDLPSAAAK, peptide start residue: 271)",0.223
11,"UniProt Q5VYK3 (peptide sequence: FQEFSNIVIPLIKK, peptide start residue: 1651)",-0.116
12,"CCDC178 (peptide sequence: FITMRFK, peptide start residue: 696) (UniProt Q5BJE1)",0.334
13,"UniProt Q5JNZ3 (peptide sequence: VHTGEKPYECEECGK, peptide start residue: 363)",0.591
14,"VARS2 (peptide sequence: EGFFKPEYQAR, peptide start residue: 120) (UniProt Q5ST30)",-0.266
15,"ZFYVE27 (peptide sequence: SSMGATAPEAQR, peptide start residue: 385) (UniProt Q5T4F4)",0.0182
16,"UniProt Q5QP82 (peptide sequence: LTHYIEEANVGR, peptide start residue: 461)",-0.772
17,"UniProt Q504T8 (peptide sequence: LQLLLQQK, peptide start residue: 395)",0.336
18,"TRMT12 (peptide sequence: QKLFDTQHR, peptide start residue: 40) (UniProt Q53H54)",0.419
19,"DNLZ (peptide sequence: NIEEILTAR, peptide start residue: 124) (UniProt Q5SXM8)",0.0148
20,"UniProt Q53EV4 (peptide sequence: GNMVANLGELAK, peptide start residue: 254)",-0.0522
21,"UniProt Q4G148 (peptide sequence: SLLKPLELELQK, peptide start residue: 397)",0.29
22,"UBR4 (peptide sequence: KVQLTPGQTEVK, peptide start residue: 3617) (UniProt Q5T4S7)",0.78
23,"TAF3 (peptide sequence: IKVEPVALAPSPVIPR, peptide start residue: 745) (UniProt Q5VWG9)",0.172
24,"UniProt Q5VIY5 (peptide sequence: ELAGSTGQHDQR, peptide start residue: 118)",-0.0372
25,"UniProt Q53FT3 (peptide sequence: LAQNPLFWK, peptide start residue: 188)",-0.161
26,"CPTP (peptide sequence: AVTVAFCTLPTR, peptide start residue: 157) (UniProt Q5TA50)",0.11
27,"UniProt Q5JTJ3 (peptide sequence: SSFESSCPQQWIK, peptide start residue: 84)",-0.387
28,"ZNF691 (peptide sequence: SDLTTHQQDHLGK, peptide start residue: 184) (UniProt Q5VV52)",0.313
29,"SMUG1 (peptide sequence: ERLNELGLLPLLLK, peptide start residue: 257) (UniProt Q53HV7)",0.348

# Pulled one by one from above, two records:
row,Target,log2 fold change
26,"CPTP (peptide sequence: AVTVAFCTLPTR, peptide start residue: 157) (UniProt Q5TA50)",0.11
3,"STXBP5 (peptide sequence: KLSLPTDLKPDLDVK, peptide start residue: 757) (UniProt Q5T5C0)",0.107
